# Assay results from patent publication US20140005163A1 (NOVARTIS AG, priority 2010, published 2014).
# Amino acid sequences for entries named in this document (tags omitted). Chains listed by the source or under a name are the forms on record and can include a tag or linker. Residues count along the entry.
# UniProt P48736, 144-1102 limits assumed: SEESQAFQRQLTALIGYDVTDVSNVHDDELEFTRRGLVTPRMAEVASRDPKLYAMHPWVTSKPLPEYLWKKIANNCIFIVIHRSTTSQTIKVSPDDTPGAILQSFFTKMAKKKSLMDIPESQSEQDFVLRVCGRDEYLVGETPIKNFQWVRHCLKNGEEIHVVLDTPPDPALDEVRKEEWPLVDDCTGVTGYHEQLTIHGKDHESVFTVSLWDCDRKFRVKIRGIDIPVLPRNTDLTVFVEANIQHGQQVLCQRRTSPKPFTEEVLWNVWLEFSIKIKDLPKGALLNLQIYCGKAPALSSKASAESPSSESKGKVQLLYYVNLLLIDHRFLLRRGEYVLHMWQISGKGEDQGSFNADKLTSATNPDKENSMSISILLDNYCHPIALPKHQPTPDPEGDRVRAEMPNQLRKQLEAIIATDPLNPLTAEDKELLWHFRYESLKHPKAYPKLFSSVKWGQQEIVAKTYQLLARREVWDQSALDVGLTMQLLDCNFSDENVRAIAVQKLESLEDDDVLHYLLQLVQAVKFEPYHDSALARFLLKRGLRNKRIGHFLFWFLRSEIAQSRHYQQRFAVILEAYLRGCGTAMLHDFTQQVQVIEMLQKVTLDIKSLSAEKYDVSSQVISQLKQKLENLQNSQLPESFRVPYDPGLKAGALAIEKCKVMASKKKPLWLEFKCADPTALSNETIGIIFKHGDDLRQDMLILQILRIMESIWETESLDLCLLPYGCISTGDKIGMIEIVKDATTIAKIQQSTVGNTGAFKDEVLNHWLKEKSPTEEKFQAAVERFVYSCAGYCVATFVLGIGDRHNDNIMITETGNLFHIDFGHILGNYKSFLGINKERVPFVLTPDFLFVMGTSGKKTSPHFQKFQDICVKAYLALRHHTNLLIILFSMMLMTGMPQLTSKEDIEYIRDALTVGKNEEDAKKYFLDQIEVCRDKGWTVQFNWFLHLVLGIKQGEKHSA
# UniProt P42336, 21-1068 with tags or gaps limits assumed: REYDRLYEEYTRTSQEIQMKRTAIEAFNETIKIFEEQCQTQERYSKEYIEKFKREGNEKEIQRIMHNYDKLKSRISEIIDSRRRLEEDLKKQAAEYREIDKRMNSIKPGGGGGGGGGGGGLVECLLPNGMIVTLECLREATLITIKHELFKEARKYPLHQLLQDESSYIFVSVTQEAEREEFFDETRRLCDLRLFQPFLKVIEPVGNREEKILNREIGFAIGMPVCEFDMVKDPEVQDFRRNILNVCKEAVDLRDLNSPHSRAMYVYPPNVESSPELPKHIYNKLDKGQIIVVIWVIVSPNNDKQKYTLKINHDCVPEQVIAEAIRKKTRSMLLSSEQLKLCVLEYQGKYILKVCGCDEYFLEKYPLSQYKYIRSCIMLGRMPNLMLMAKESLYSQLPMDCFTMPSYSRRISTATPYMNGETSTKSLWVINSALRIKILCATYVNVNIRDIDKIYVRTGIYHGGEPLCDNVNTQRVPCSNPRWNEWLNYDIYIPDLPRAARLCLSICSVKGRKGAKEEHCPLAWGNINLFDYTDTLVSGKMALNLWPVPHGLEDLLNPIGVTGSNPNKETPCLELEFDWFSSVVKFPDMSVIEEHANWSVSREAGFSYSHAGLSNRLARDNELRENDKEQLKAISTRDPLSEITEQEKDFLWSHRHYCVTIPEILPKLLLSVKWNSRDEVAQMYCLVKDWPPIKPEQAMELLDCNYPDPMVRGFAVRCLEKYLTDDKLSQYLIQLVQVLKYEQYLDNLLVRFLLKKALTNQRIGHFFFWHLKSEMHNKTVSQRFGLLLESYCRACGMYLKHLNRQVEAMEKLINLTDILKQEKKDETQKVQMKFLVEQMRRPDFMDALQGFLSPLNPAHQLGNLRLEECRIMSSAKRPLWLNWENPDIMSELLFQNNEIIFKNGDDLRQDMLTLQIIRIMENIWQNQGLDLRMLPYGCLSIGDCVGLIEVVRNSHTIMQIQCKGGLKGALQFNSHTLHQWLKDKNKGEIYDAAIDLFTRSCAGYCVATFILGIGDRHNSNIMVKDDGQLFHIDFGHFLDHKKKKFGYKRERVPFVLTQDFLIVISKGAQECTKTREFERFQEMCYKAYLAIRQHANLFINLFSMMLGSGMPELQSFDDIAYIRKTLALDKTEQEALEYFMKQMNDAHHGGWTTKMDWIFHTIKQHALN
# UniProt P42338, 2-1070 with tags or gaps limits assumed: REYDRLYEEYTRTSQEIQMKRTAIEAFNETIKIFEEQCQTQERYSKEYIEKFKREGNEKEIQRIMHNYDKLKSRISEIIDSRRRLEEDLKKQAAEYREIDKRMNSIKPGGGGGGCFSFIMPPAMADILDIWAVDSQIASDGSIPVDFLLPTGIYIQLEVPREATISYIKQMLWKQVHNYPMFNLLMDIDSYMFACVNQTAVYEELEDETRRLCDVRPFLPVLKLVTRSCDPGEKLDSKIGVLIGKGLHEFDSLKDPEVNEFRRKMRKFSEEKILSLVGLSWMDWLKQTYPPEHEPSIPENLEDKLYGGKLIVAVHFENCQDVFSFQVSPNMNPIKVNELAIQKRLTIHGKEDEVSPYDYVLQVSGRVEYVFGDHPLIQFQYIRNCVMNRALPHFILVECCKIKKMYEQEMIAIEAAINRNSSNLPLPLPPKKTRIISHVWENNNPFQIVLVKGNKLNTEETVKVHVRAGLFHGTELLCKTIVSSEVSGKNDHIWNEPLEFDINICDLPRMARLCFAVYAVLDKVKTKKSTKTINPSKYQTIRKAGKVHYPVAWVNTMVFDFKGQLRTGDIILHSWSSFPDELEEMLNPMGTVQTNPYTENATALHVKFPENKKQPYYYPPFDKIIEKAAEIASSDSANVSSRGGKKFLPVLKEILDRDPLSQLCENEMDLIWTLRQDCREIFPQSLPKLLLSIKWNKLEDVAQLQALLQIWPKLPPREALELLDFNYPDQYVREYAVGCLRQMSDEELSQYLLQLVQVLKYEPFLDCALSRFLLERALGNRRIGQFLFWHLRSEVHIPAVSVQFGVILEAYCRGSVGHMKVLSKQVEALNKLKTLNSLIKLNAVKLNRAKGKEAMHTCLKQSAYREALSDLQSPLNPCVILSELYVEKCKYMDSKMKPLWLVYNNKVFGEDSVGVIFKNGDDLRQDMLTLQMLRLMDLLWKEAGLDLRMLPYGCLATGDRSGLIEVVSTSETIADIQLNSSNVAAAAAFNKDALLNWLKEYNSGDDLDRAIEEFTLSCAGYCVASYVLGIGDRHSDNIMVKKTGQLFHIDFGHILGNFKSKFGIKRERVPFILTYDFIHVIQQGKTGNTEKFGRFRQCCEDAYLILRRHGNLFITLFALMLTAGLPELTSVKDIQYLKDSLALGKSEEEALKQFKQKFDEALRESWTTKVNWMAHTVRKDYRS
# UniProt O00329, 2-1044 with tags or gaps limits assumed: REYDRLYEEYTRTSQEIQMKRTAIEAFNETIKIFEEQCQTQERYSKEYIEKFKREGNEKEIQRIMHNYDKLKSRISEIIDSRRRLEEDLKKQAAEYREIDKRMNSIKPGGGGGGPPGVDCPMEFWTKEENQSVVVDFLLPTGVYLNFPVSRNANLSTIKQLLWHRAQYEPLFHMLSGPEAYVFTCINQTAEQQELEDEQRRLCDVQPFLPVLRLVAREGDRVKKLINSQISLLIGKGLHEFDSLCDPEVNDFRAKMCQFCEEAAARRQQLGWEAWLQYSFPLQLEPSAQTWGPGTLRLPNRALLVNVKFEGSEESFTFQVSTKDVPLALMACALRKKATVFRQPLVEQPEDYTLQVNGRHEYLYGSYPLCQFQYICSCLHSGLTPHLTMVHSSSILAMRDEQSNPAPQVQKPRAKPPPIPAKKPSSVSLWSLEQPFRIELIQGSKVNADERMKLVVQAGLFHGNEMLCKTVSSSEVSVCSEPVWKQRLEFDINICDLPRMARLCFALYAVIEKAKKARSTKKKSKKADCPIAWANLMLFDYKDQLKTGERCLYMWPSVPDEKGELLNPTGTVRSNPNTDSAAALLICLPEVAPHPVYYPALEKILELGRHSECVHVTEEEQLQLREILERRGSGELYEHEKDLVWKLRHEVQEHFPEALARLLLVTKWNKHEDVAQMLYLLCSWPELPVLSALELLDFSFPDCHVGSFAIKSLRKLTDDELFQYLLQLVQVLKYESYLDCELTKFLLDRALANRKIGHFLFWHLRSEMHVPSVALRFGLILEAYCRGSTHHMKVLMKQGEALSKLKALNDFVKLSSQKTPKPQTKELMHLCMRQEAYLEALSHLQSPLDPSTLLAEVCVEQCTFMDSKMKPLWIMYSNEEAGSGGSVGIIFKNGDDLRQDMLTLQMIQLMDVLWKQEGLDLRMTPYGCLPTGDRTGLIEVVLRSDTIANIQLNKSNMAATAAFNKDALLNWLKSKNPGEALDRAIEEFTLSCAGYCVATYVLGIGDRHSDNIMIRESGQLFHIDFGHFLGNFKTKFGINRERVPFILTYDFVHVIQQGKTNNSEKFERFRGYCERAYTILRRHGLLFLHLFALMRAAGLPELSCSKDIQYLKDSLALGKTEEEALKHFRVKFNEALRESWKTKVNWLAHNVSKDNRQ
# UniProt P42345, 1360-2549 limits assumed: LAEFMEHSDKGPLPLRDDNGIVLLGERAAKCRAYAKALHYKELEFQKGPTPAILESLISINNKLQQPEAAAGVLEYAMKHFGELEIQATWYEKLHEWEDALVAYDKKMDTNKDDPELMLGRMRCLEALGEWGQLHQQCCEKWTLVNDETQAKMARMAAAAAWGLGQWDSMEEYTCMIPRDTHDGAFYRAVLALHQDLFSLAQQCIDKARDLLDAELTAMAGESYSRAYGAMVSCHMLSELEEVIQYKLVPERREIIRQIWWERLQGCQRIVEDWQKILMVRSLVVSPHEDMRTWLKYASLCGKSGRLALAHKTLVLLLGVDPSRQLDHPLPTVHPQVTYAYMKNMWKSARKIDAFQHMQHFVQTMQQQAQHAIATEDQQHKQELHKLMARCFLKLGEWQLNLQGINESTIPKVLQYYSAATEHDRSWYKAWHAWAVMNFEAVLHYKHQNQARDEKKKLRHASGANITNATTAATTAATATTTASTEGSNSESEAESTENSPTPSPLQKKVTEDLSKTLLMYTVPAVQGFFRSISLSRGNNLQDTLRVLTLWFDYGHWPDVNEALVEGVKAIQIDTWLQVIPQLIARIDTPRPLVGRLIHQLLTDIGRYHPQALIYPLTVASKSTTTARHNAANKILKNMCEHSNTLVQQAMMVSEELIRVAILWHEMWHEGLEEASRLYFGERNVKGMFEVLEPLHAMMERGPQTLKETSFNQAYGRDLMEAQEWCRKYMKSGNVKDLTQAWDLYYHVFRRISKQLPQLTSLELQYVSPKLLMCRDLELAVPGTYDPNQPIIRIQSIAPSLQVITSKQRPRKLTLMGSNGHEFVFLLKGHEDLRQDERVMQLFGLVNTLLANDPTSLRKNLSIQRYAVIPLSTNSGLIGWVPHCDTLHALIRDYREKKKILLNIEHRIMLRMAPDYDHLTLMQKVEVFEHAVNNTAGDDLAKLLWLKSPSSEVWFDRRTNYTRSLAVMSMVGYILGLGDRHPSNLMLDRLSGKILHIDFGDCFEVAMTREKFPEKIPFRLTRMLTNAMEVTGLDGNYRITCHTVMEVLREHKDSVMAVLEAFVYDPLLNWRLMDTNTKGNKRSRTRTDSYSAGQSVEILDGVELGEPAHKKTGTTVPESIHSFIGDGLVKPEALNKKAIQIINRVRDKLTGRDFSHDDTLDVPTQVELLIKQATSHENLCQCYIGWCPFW
# Structures were worked out from names or drawings and are uncertain.
# Assays:
# PI3K gamma = PI3K gamma (Homo sapiens, UniProt P48736); assay: PI3K gamma kinase assay (Kinase-Glo luminescence); settings: read-out: PI3K gamma IC50
# PI3K alpha = PI3K alpha (Homo sapiens, UniProt P42336); assay: PI3K alpha kinase assay (Kinase-Glo luminescence); settings: read-out: PI3K alpha IC50
# PI3K beta = PI3K beta (Homo sapiens, UniProt P42338); assay: PI3K beta kinase assay (Kinase-Glo luminescence); settings: read-out: PI3K beta IC50
# PI3K delta = PI3K delta (Homo sapiens, UniProt O00329); assay: PI3K delta kinase assay (Kinase-Glo luminescence); settings: read-out: PI3K delta IC50
# mTOR = mTOR (Homo sapiens, UniProt P42345); assay: Biochemical assay for m-TOR by TR-FRET; settings: read-out: mTOR IC50, 8 μM ATP, 400 nM GFP-4EBP1, 0.5 nM mTOR
# [1] = system: PKB Ser473 phosphorylation in Rat1-myr-HA-p110 alpha cells; assay: Reverse protein array assay, PKB Ser473 phosphorylation in Rat1-myr-p110 alpha cells; settings: read-out: p-PKB IC50, pAkt Ser473, 30 minutes compound incubation
# [2] = system: PKB Ser473 phosphorylation in Rat1-myr-HA-p110 beta cells; assay: Reverse protein array assay, PKB Ser473 phosphorylation in Rat1-myr-p110 beta cells; format: cell-based; settings: read-out: p-PKB IC50, pAkt Ser473, 30 minutes incubation
# [3] = system: PKB Ser473 phosphorylation in Rat1-myr-HA-p110 delta cells; assay: Reverse protein array assay, PKB Ser473 phosphorylation in Rat1-myr-p110 delta cells; settings: read-out: p-PKB IC50
# [4] = system: S6 Ribosomal Protein phosphorylation Ser235/236 in TSC1 null mouse embryo fibroblast (MEF) cells; assay: Reverse protein array assay, S6 Ribosomal Protein phosphorylation Ser235/236 in TSC1 null MEF cells; settings: read-out: p-S6 IC50, pS6 ribosomal protein Ser235/236, 60 minutes incubation
IC50 (PI3K gamma) [nM],IC50 (PI3K alpha) [nM],IC50 (PI3K beta) [nM],IC50 (PI3K delta) [nM],IC50 (mTOR) [nM],IC50 [1] [nM],IC50 [2] [nM],IC50 [3] [nM],Structure (SMILES),IC50 [4] [nM]
160,,,,,,,,"Cc1nn(C)cc1-n1c(=O)n(C)c2cnc3ccc(-c4ccc(N)nc4)cc3c21 [Example 23.1, 8-(6-Amino-pyridin-3-yl)-1-(1,3-dimethyl-1H-pyrazol-4-yl)-3-methyl-1,3-dihydro-imidazo[4,5-c]quinolin-2-one]",
,12,13,5,6,8,22,22,COCCOc1cc(-c2ccc3ncc4c(c3c2)n(-c2cn(C)nc2Cl)c(=O)n4C)cnc1C,3
303,,,,,,,,"Cc1nn(C)cc1-n1c(=O)n(C)c2cnc3ccc(-c4cnc(N)c(C(F)(F)F)c4)cc3c21 [Example 25.1, 8-(6-Amino-5-trifluoromethyl-pyridin-3-yl)-1-(1,3-dimethyl-1H-pyrazol-4-yl)-3-methyl-1,3-dihydro-imidazo[4,5-c]quinolin-2-one]",
